Structures are written as SMILES. The list shows a part of the results.

27 compounds from the supplement of paper PMC8426693 can be followed below.

The subject of the assay is SARS-CoV-2 3'-UTR RNA. As to the kind of experiment: NMR binding call after quantification (hit when 2 of 3 NMR criteria are met) (binary (1 = binding, 0 = not binding)); higher = binding. The settings on record: RNA concentration 10 µM; fragment concentration 200 µM; 293 K.
For the compound `CCS(=O)(=O)NCc1ccc2c(c1)OCO2`, the NMR binding call stood at 0.

Compound `Nc1ccc(S(=O)(=O)Nc2ccccn2)cc1` returned an NMR binding call of 0.

`Cc1cc(C(=O)NC(C)C)on1` came in with an NMR binding call of 0.

`Cc1ccsc1CNC(C)(C)CO` gave an NMR binding call of 0.

Compound `Cc1nn(Cc2c(C)noc2C)c(=O)s1` displayed an NMR binding call of 0.

As for `CC(C)NC(=O)c1cc[nH]n1`, the NMR binding call was 0.

Take `CC(C)NC(=O)N(C)Cc1cnn(C)c1`: the NMR binding call is 0.

In turn, `CC(C)N1CCCC(CO)C1` (configuration not stated) had an NMR binding call of 0.

On to `CC1COCCN1CCN` (configuration not stated), for which the NMR binding call was determined as 0.

The compound `CC(C)(O)CNC1CCOCC1` registered an NMR binding call of 0.

On to `CC(=O)NCC1(c2ccccc2)CCOCC1`, for which the NMR binding call stood at 0.

Take `CNC(=O)c1ccc(S(N)(=O)=O)cc1`: the NMR binding call came to 0.

`CN(C)Cc1nc(C2(N)CCCC2)no1` returned an NMR binding call of 0.

Compound `CC(O)CNCc1c(Cl)cccc1Cl` (configuration not stated) yielded an NMR binding call of 0.

In the case of `O=C(Nc1ccc(O)cc1)N1CCOCC1`, the NMR binding call came out at 0.

The compound `CC1CCCN(C(=O)CO)C1` (configuration not stated) had an NMR binding call of 0.

In turn, `CNc1ncc(C(F)(F)F)cc1Cl` yielded an NMR binding call of 0.

As to `O=C(NCc1ccco1)NC1CCCCC1`, the NMR binding call came to 0.

For the compound `CC(=O)Nc1ccc(CC(N)=O)cc1`, the NMR binding call stood at 0.

Consider `NC(=O)N1CCN(C(=O)c2ccco2)CC1`, for which the NMR binding call was found to be 0.

With `Cc1cnc(N2CCNCC2)s1.Cl.Cl`, the NMR binding call came out at 0.

The compound `O=C(c1c(F)cccc1F)N1CCCC1` displayed an NMR binding call of 0.

`CC(Oc1ccc(-c2ccccc2)cc1)C(=O)O` (configuration not stated) came in with an NMR binding call of 0.

In turn, `Cl.O=C(O)CCN1CCCCC1` returned an NMR binding call of 0.

Compound `CC(C)n1cc(C(=O)O)nn1` showed an NMR binding call of 0.

For the compound `CN1CCN(c2ncccc2F)CC1=O`, the NMR binding call came out at 0.

Take `COc1cc(C(=O)O)cc(OC)c1OC`: the NMR binding call came to 0.
